Each structure is given as a SMILES string. Counter-ions that a name gives are not always drawn.

Sequences of proteins named here, by UniProt entry; tags and fusion partners are left off.
UniProt R9ULB8, entry or part of it: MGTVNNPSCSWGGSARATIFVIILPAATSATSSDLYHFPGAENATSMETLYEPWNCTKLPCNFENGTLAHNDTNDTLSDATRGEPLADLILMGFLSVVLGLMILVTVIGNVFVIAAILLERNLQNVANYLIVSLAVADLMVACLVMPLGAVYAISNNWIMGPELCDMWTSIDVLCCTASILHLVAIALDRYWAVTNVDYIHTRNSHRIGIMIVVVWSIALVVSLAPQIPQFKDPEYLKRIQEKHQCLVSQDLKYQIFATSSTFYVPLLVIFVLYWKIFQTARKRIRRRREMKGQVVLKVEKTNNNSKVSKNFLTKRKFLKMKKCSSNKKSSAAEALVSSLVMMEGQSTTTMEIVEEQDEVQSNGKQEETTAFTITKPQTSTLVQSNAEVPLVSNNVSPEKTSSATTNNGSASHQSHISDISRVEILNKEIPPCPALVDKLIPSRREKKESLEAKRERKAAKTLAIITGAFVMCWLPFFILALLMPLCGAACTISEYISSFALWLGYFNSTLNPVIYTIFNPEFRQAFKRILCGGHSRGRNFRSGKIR

The assay concerns the target Trica5-HT1 (Tribolium castaneum, UniProt R9ULB8). In words: Aequorin-luminescence assay, antagonist inhibition of 5-HT mediated activation of Trica5-HT1 in CHO-WTA11 cells. Type of assay: cell-based. To be noted: inhibition of 5-HT (100 nM) mediated activation. The procedure:
General binding studies were performed in Chinese hamster ovary (CHO) WTA11 cells stably coexpressing apoaequorin and the promiscuous Gα16. This allowed us to measure the pharmacology independent of the downstream signaling. CHO-PAM28 cells stably expressing apoaequorin, but not the promiscuous Gα16, and human embryonic kidney cells (HEK) 293 cells were used to measure downstream signaling via Ca^2+ and cAMP, respectively. CHO cell lines were provided by Prof. Marc Parmentier (University of Brussels, Belgium) and Dr. Michel Detheux (Euroscreen S.A., Belgium). HEK293 cells were a gift from Prof. Arnd Baumann (Research Centre Jülich, Germany.
Cells were cultured in vitro as monolayers at 37°C, 5% CO2 and high relative humidity, and subcultivated twice a week. […] HEK293 cells were cotransfected with receptor construct (4 µg) and CRE-luciferase construct (2 µg), consisting of the open reading frame of the reporter gene, luciferase, downstream of a multimerized cAMP-response-element (CRE6x), [39]. […]
The transfected CHO cells were detached with phosphate buffered saline (PBS) containing 0.2% EDTA and collected in DMEM/F-12 (without phenol red, with L-glutamine and 10 mM HEPES) (Gibco). The amount of viable cells was determined using the NucleoCounter NC-100+TM (Chemometic). […] Receptor activity was measured as the light emission after adding 50 µl of the cell suspension. […]

Take `CN1CCN2c3ccccc3Cc3ccccc3C2C1` (centres unmarked) [mianserin, mianserin hydrochloride]: the IC50 entry is recorded as “no inhibition”. Besides, the “logIC50 (mean ± SEM)” value (given as negative log values) was “no inhibition”.
